# ± gives the standard deviation of the averaged measurements. The full ranking holds about 1,600 compounds; the median of “normalized growth (OD600, IQM-normalized) in LPM” is about 1, and the lowest 2% start at about 0.014. The list shows a part of the results.
# Tested on: Salmonella enterica serovar Typhimurium SL1344
# Assay: normalized growth (OD600, IQM-normalized) in LPM (fraction of plate interquartile mean); higher = more bacterial growth (less inhibition)
# Settings: LPM pH 5.8; 10 µM; 16 h
row,Structure (SMILES),normalized growth
1,O=C(NCCCN1CCOCC1)c1ccc(Cl)cc1,1.02 ± 0.093
2,COc1cc(CNC(=O)CCCC/C=C/C(C)C)ccc1O,0.913 ± 0.12
3,C[C@]12CC[C@@H]3c4ccc(O)cc4C[C@@H](CCCCCCCCC[S+]([O-])CCCC(F)(F)C(F)(F)F)[C@H]3[C@@H]1CC[C@@H]2O (stereo partly drawn),0.902 ± 0.026
4,O=C(CCCl)NCCc1ccccc1,0.985 ± 0.086
5,CC(=O)Nc1nnc(S(N)(=O)=O)s1,1.11 ± 0.014
6,CC(=O)Nc1c(I)cc(I)c(C(=O)O)c1I,0.949 ± 0.12
7,Cc1cc2cc3c(C)cc(=O)oc3c(C)c2o1,0.94 ± 0.069
8,CC(C)Oc1ccc2c(=O)c(-c3ccccc3)coc2c1,1.1 ± 0.058
9,CCCCOc1cc(C(=O)OCCN(CC)CC)ccc1N,1.16 ± 0.043
10,C[N+](C)(C)CC(O)CC(=O)[O-] (stereo not drawn),1.05 ± 0.048
11,CCCCC(CC)COC(=O)CC(C(=O)OCC(CC)CCCC)S(=O)(=O)O (stereo not drawn),1 ± 0.029
12,C[C@H]1C[C@H]2[C@@H]3CCC4=CC(=O)C=C[C@]4(C)[C@@]3(F)[C@@H](O)C[C@]2(C)[C@@]1(O)C(=O)COP(=O)(O)O,1.12 ± 0.015
13,Nc1ncnc2c1ncn2[C@@H]1O[C@H](CO)[C@@H](O)[C@@H]1O,0.895 ± 0.014
14,C[C@@](Cc1ccc(O)c(O)c1)(NN)C(=O)O,0.973 ± 0.049
15,CCOc1nc2cccc(C(=O)O)c2n1Cc1ccc(-c2ccccc2-c2nnn[nH]2)cc1,1 ± 0.06
16,CC[C@H](C)[C@H](N)C(=O)O,1.03 ± 0.033
17,Oc1c(Cl)cc(Cl)c2cccnc12,0.0401 ± 0.014
18,c1ccc(-c2ccc(C(c3ccccc3)n3ccnc3)cc2)cc1 (stereo not drawn),1.08 ± 0.03
19,O=C1CC[C@@H](C(=O)N2CSC[C@H]2C(=O)O)N1,1.1 ± 0.074
20,CN(C)CCC(c1ccc(Br)cc1)c1ccccn1 (stereo not drawn),0.936 ± 0.027
21,N#Cc1ccc2c(c1)N(CCCN1CCC(O)CC1)c1ccccc1S2,1.09 ± 0.035
22,CC(C)NCC(O)COc1ccc(CC(N)=O)cc1 (stereo not drawn),1.08 ± 0.018
23,Cn1c(=O)c2c(ncn2CC2OCCO2)n(C)c1=O,1.11 ± 0.079
24,COC(=O)Nc1nc2cc(Sc3ccccc3)ccc2[nH]1,0.987 ± 0.024
25,CC(=O)N(CC(O)CO)c1c(I)c(C(=O)NCC(O)CO)c(I)c(C(=O)NCC(O)CO)c1I (stereo not drawn),1.05 ± 0.053
26,CN1CCN(CC(=O)N2c3ccccc3C(=O)Nc3cccnc32)CC1,0.851 ± 0.067
27,CC(=O)N(CC(O)CO)c1c(I)c(C(=O)NCCO)c(I)c(C(=O)NCC(O)CO)c1I (stereo not drawn),1.05 ± 0.036

row,Structure (SMILES),normalized growth
1,Clc1cccc(Cl)c1NC1=NCCN1,1.26 ± 0.077
2,C[C@]12C=CC(=O)N[C@@H]1CC[C@@H]1[C@@H]2CC[C@]2(C)[C@@H](C(=O)Nc3cc(C(F)(F)F)ccc3C(F)(F)F)CC[C@@H]12,1.034 ± 0.008
3,CO[C@H]1/C=C/O[C@@]2(C)Oc3c(C)c(O)c4c(O)c(c5c(nc6cc(C)ccn65)c4c3C2=O)NC(=O)/C(C)=C\C=C\[C@H](C)[C@H](O)[C@@H](C)[C@@H](O)[C@@H](C)[C@H](OC(C)=O)[C@@H]1C,0.0104 ± 0.00017
4,Cc1cc(O)c(C(=O)N[C@@H](C(=O)N[C@@H]2C(=O)N3C(C(=O)O)=C(CSc4nnnn4C)CS[C@H]23)c2ccc(O)cc2)cn1,0.9456 ± 0.0058
5,CCCNC(=O)NS(=O)(=O)c1ccc(Cl)cc1,1.19 ± 0.22
6,CCN(CC)C(C)CN1c2ccccc2Sc2ccccc21 (stereo not drawn),1.07 ± 0.067
7,CC(=O)O[C@]1(C(C)=O)CC[C@H]2[C@@H]3C=C(Cl)C4=CC(=O)CC[C@]4(C)[C@H]3CC[C@@]21C,1.04 ± 0.054
8,CNCCc1ccccn1,1.04 ± 0.031
9,CC1=C(C)C(=O)C(C(CCCCCC(=O)O)c2ccccc2)=C(C)C1=O (stereo not drawn),1.11 ± 0.037
10,CC1CC2C3CCC4=CC(=O)C=CC4(C)C3(F)C(O)CC2(C)C1C(=O)CO (stereo not drawn),0.992 ± 0.02
11,CC=CC(=O)N(CC)c1ccccc1C,1.11 ± 0.13
12,CN(C)C(=N)NC(=N)N,0.954 ± 0.016
13,NCCCCCC(=O)O,0.956 ± 0.018
14,Nc1nc2c(ncn2COC(CO)CO)c(=O)[nH]1,1.06 ± 0.031
15,CCCCCCCCCCCCCCCC(=O)OC[C@H](O)[C@H]1OC(=O)C(O)=C1O,0.86 ± 0.02
16,CCN(CC)C(=O)c1ccc(O)c(OC)c1,0.825 ± 0.086
17,O=C(c1ccc(F)cc1)C1CCN(CCn2c(=O)[nH]c3ccccc3c2=O)CC1,1.06 ± 0.065
18,CC(=O)[C@@]1(O)CC[C@H]2[C@@H]3CCC4=CC(=O)CC[C@]4(C)[C@H]3CC[C@@]21C,0.894 ± 0.077
19,Clc1ccc2c(c1)CCc1cccnc1C2=C1CCNCC1,1.02 ± 0.024
20,O=C1NCC2(CCN(CCc3ccccc3)CC2)O1,0.9961 ± 0.0021
21,CN(C)CCOC(c1ccccc1)c1ccccc1.Cn1c(=O)c2[nH]c(Cl)nc2n(C)c1=O,0.914 ± 0.015
22,CCCOc1ccc2[nH]c(NC(=O)OC)nc2c1,0.944 ± 0.035
23,Cc1cc2nc3c(=O)[nH]c(=O)nc-3n(C[C@H](O)[C@H](O)[C@H](O)CO)c2cc1C,0.894 ± 0.044
24,C[C@@H]1C[C@H]2[C@@H]3CCC4=CC(=O)C=C[C@]4(C)[C@@]3(F)[C@@H](O)C[C@]2(C)[C@@]1(O)C(=O)COP(=O)(O)O,1.01 ± 0.047
25,CCN(CC)CCNC(C(=O)OCCC(C)C)c1ccccc1 (stereo not drawn),1.02 ± 0.046
26,C(=C\c1ccccc1)/CN1CCN(C(c2ccccc2)c2ccccc2)CC1,1.12 ± 0.019

# An excerpt of these results, with bars between the fields:
row | Structure (SMILES) | normalized growth
6 | CCN(CC)C(C)CN1c2ccccc2Sc2ccccc21 (stereo not drawn) | 1.07 ± 0.067
7 | CC(=O)O[C@]1(C(C)=O)CC[C@H]2[C@@H]3C=C(Cl)C4=CC(=O)CC[C@]4(C)[C@H]3CC[C@@]21C | 1.04 ± 0.054
8 | CNCCc1ccccn1 | 1.04 ± 0.031
9 | CC1=C(C)C(=O)C(C(CCCCCC(=O)O)c2ccccc2)=C(C)C1=O (stereo not drawn) | 1.11 ± 0.037
10 | CC1CC2C3CCC4=CC(=O)C=CC4(C)C3(F)C(O)CC2(C)C1C(=O)CO (stereo not drawn) | 0.992 ± 0.02
11 | CC=CC(=O)N(CC)c1ccccc1C | 1.11 ± 0.13
12 | CN(C)C(=N)NC(=N)N | 0.954 ± 0.016
13 | NCCCCCC(=O)O | 0.956 ± 0.018
14 | Nc1nc2c(ncn2COC(CO)CO)c(=O)[nH]1 | 1.06 ± 0.031
15 | CCCCCCCCCCCCCCCC(=O)OC[C@H](O)[C@H]1OC(=O)C(O)=C1O | 0.86 ± 0.02
16 | CCN(CC)C(=O)c1ccc(O)c(OC)c1 | 0.825 ± 0.086
17 | O=C(c1ccc(F)cc1)C1CCN(CCn2c(=O)[nH]c3ccccc3c2=O)CC1 | 1.06 ± 0.065

# Reference: the supplement of paper PMC6331611
